Reference: PubChem BioAssay AID493246 (Drosophila RNAi Screening Center, 2011)

Screen: 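Genes fly cells need to grow and stay alive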 (primary screen)
Cells: Drosophila Kc and S2R+ cells
Reagents: long dsRNA against Drosophila genes
Measured: 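Cell number per well after knock-down, printed as raw plate values; calls were based on per-plate z-scores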
Reading the numbers: Kc cell number and S2R+ cell number: higher = more cells remaining
Hit rule: 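Counted as a hit if cell number falls by a z-score of at least 3 within its plate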
In all, the deposit lists about 21,000 reagents; shown is an unselected part of those with a known target gene and a result. Of all reagents, 429 (2%) got an active call. 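Values are raw and not normalised between plates; calls rest on per-plate z-scores that were not deposited.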 Reagent sequences are not shown. The record does not give: the amount of reagent, the time to read-out.

Lmpt (Limpet) [DRSC09450] showed Kc cell number, rep 1 = 1.33e6; Kc cell number, rep 2 = 1.26e6; S2R+ cell number, rep 1 = 1.02e6; S2R+ cell number, rep 2 = 1.11e6; inactive. For Lmpt (Limpet) [DRSC09864] the deposit lists Kc cell number, rep 1 = 1.52e6; Kc cell number, rep 2 = 1.67e6; S2R+ cell number, rep 1 = 1.28e6; S2R+ cell number, rep 2 = 1.38e6; inactive. Against Lmpt (Limpet) [DRSC09865], the values are Kc cell number, rep 1 = 1.48e6; Kc cell number, rep 2 = 1.50e6; S2R+ cell number, rep 1 = 1.33e6; S2R+ cell number, rep 2 = 1.27e6; inactive. With knock-down of Lmpt (Limpet) [DRSC09866], the screen gave Kc cell number, rep 1 = 1.36e6; Kc cell number, rep 2 = 1.54e6; S2R+ cell number, rep 1 = 1.26e6; S2R+ cell number, rep 2 = 1.39e6; inactive. Lmpt (Limpet) [DRSC11107] gave Kc cell number, rep 1 = 1.36e6; Kc cell number, rep 2 = 1.44e6; S2R+ cell number, rep 1 = 1.26e6; S2R+ cell number, rep 2 = 1.34e6; inactive. CG11498 [DRSC14315] showed Kc cell number, rep 1 = 1.47e6; Kc cell number, rep 2 = 1.63e6; S2R+ cell number, rep 1 = 1.09e6; S2R+ cell number, rep 2 = 1.19e6; inactive.

Depletion of CG42674 [DRSC10067] came out at: Kc cell number, rep 1 = 1.65e6; Kc cell number, rep 2 = 1.85e6; S2R+ cell number, rep 1 = 1.22e6; S2R+ cell number, rep 2 = 1.36e6; inactive. CG42674 [DRSC10811] showed Kc cell number, rep 1 = 1.75e6; Kc cell number, rep 2 = 1.68e6; S2R+ cell number, rep 1 = 1.41e6; S2R+ cell number, rep 2 = 1.57e6; inactive. With knock-down of mRpS34 (mitochondrial ribosomal protein S34) [DRSC09918], the record shows Kc cell number, rep 1 = 1.09e6; Kc cell number, rep 2 = 1.34e6; S2R+ cell number, rep 1 = 1.15e6; S2R+ cell number, rep 2 = 1.30e6; inactive. Cyp6d2 (Cytochrome P450 6d2) [DRSC04606] scored Kc cell number, rep 1 = 1.33e6; Kc cell number, rep 2 = 1.28e6; S2R+ cell number, rep 1 = 9.88e5; S2R+ cell number, rep 2 = 1.10e6; inactive. With knock-down of sp3 (spermathreecae) [DRSC16354], the screen gave Kc cell number, rep 1 = 1.46e6; Kc cell number, rep 2 = 1.44e6; S2R+ cell number, rep 1 = 1.03e6; S2R+ cell number, rep 2 = 1.14e6; inactive. For Golgin84 (Golgin-84) [DRSC15269], the values are Kc cell number, rep 1 = 1.52e6; Kc cell number, rep 2 = 1.63e6; S2R+ cell number, rep 1 = 1.02e6; S2R+ cell number, rep 2 = 1.12e6; inactive.

2 entries from above, sorted by “S2R+ cell number, rep 2”, ascending.
Lmpt (Limpet) [DRSC11107] → Kc cell number, rep 1: 1.36e6; Kc cell number, rep 2: 1.44e6; S2R+ cell number, rep 1: 1.26e6; S2R+ cell number, rep 2: 1.34e6; outcome: inactive
Lmpt (Limpet) [DRSC09866] → Kc cell number, rep 1: 1.36e6; Kc cell number, rep 2: 1.54e6; S2R+ cell number, rep 1: 1.26e6; S2R+ cell number, rep 2: 1.39e6; outcome: inactive
